Reference: publication PMC5733569, “Sbp1 modulates the translation of Pab1 mRNA in a poly(A)- and RGG-dependent manner” (RNA, 2018)
Results are given in words; binding and its absence hold for the method and conditions named. Tags and fused reporters may be left off the sequences shown.

Molecular target: T1, GST-Sbp1 (S. cerevisiae) (UniProt P10080)
T1 sequence: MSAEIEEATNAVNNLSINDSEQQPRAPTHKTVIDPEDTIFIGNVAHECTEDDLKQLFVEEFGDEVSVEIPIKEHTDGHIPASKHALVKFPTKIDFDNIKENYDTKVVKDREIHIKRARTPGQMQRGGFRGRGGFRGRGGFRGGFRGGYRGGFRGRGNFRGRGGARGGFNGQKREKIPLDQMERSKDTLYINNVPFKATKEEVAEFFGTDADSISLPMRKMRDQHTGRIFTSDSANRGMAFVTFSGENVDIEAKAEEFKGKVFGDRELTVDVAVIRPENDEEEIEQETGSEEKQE
Experiment: pull-down; domain mutants of Pab1 tested for binding with Sbp1 (Supplemental Fig. S5A-H); which partner was GST-tagged and whether RNA was present is not given; both purified

| binding | Substance |
| --- | --- |
| no binding | Pab1 RRM1 domain mutant (S. cerevisiae) (domain or fragment) |
| no binding | Pab1 RRM2 domain mutant (S. cerevisiae) (domain or fragment) |
| no binding | Pab1 RRM3 domain mutant (S. cerevisiae) (domain or fragment) |
| no binding | Pab1 RRM4 domain mutant (S. cerevisiae) (domain or fragment) |
